From paper PMC11873285
These are yes or no findings as the source states them, for the method shown. Binding seen in cells or lysates may run through a third protein. Some results given as binding are weak or reduced against the parent protein; the word gives no strength. For some assays here: Where a sequence is shown, tags or fusion partners need not be part of it.

Key:
[1] = molecular target: VC-HRAS (full-length human HRas proto-oncogene GTPase fused to the C-terminal half of Venus) (human) (UniProt P01112); assay: split reporter; split Venus (pBiFC-VN173 / pBiFC-VC155, N-terminal-tagged); cotransfected MH7A cells (results) or HEK293T cells (methods); fixed with 4% paraformaldehyde, Venus fluorescence by confocal microscopy
[2] = molecular target: HRAS, endogenous in MH7A cells (active, GTP-bound HRAS) (human (endogenous in MH7A)) (UniProt P01112); assay: pull-down; same RAS-GTP pull-down, read for the effect of PLCη2 overexpressed in the MH7A cells on endogenous HRAS; both in the cell extract
[3] = molecular target: GFP-tagged HRAS (GFP–HRAS) (human) (UniProt P01112); assay: co-IP; lysates of cells coexpressing GFP-HRAS and HA-tagged PLCη2 constructs (MH7A in results, HEK293T in methods); IP with anti-GFP overnight at 4 °C in 5 mM HEPES pH 7.5, 250 mM NaCl, 0.5% NP-40, 10% glycerol, 2 mM EDTA; protein A/G agarose; blot with anti-HA

Row | Binder | binding [1] | binding [3] | other results
1 | PLCη2 overexpressed in MH7A cells from a PLCη2 plasmid (protein, UniProt O75038 1-1416) MSGPWPSPDSRTKGTVAWLAEVLLWVGGSVVLSSEWQLGPLVERCMGAMQEGMQMVKLRGGSKGLVRFYYLDEHRSCIRWRPSRKNEKAKISIDSIQEVSEGRQSEVFQRYPDGSFDPNCCFSIYHGSHRESLDLVSTSSEVARTWVTGLRYLMAGISDEDSLARRQRTRDQWLKQTFDEADKNGDGSLSIGEVLQLLHKLNVNLPRQRVKQMFREADTDDHQGTLGFEEFCAFYKMMSTRRDLYLLMLTYSNHKDHLDAASLQRFLQVEQKMAGVTLESCQDIIEQFEPCPENKSKGLLGIDGFTNYTRSPAGDIFNPEHHHVHQDMTQPLSHYFITSSHNTYLVGDQLMSQSRVDMYAWVLQAGCRCVEVDCWDGPDGEPIVHHGYTLTSKILFKDVIETINKYAFIKNEYPVILSIENHCSVIQQKKMAQYLTDILGDKLDLSSVSSEDATTLPSPQMLKGKILVKGKKLPANISEDAEEGEVSDEDSADEIDDDCKLLNGDASTNRKRVENTAKRKLDSLIKESKIRDCEDPNNFSVSTLSPSGKLGRKSKAEEDVESGEDAGASRRNGRLVVGSFSRRKKKGSKLKKAASVEEGDEGQDSPGGQSRGATRQKKTMKLSRALSDLVKYTKSVATHDIEMEAASSWQVSSFSETKAHQILQQKPAQYLRFNQQQLSRIYPSSYRVDSSNYNPQPFWNAGCQMVALNYQSEGRMLQLNRAKFSANGGCGYVLKPGCMCQGVFNPNSEDPLPGQLKKQLVLRIISGQQLPKPRDSMLGDRGEIIDPFVEVEIIGLPVDCSREQTRVVDDNGFNPTWEETLVFMVHMPEIALVRFLVWDHDPIGRDFIGQRTLAFSSMMPGYRHVYLEGMEEASIFVHVAVSDISGKVKQALGLKGLFLRGPKPGSLDSHAAGRPPARPSVSQRILRRTASAPTKSQKPGRRGFPELVLGTRDTGSKGVADDVVPPGPGPAPEAPAQEGPGSGSPRDTRPLSTQRPLPPLCSLETIAEEPAPGPGPPPPAAVPTSSSQGRPPYPTGPGANVASPLEDTEEPRDSRPRPCNGEGAGGAYERAPGSQTDGRSQPRTLGHLPVIRRVKSEGQVPTEPLGGWRPLAAPFPAPAVYSDATGSDPLWQRLEPCGHRDSVSSSSSMSSSDTVIDLSLPSLGLGRSRENLAGAHMGRLPPRPHSASAARPDLPPVTKSKSNPNLRATGQRPPIPDELQPRSLAPRMAGLPFRPPWGCLSLVGVQDCPVAAKSKSLGDLTADDFAPSFEGGSRRLSHSLGLPGGTRRVSGPGVRRDTLTEQLRWLTVFQQAGDITSPTSLGPAGEGVAGGPGFVRRSSSRSHSRVRAIASRARQAQERQQRLQGLGRQGPPEEERGTPEGACSVGHEGSVDAPAPSKGALGPASAAAENLVLLRL |  |  | binding [2]: binds
2 | HA-tagged PLCη2 (HA–PLCη2) (protein, UniProt O75038-1 1-1416) MSGPWPSPDSRTKGTVAWLAEVLLWVGGSVVLSSEWQLGPLVERCMGAMQEGMQMVKLRGGSKGLVRFYYLDEHRSCIRWRPSRKNEKAKISIDSIQEVSEGRQSEVFQRYPDGSFDPNCCFSIYHGSHRESLDLVSTSSEVARTWVTGLRYLMAGISDEDSLARRQRTRDQWLKQTFDEADKNGDGSLSIGEVLQLLHKLNVNLPRQRVKQMFREADTDDHQGTLGFEEFCAFYKMMSTRRDLYLLMLTYSNHKDHLDAASLQRFLQVEQKMAGVTLESCQDIIEQFEPCPENKSKGLLGIDGFTNYTRSPAGDIFNPEHHHVHQDMTQPLSHYFITSSHNTYLVGDQLMSQSRVDMYAWVLQAGCRCVEVDCWDGPDGEPIVHHGYTLTSKILFKDVIETINKYAFIKNEYPVILSIENHCSVIQQKKMAQYLTDILGDKLDLSSVSSEDATTLPSPQMLKGKILVKGKKLPANISEDAEEGEVSDEDSADEIDDDCKLLNGDASTNRKRVENTAKRKLDSLIKESKIRDCEDPNNFSVSTLSPSGKLGRKSKAEEDVESGEDAGASRRNGRLVVGSFSRRKKKGSKLKKAASVEEGDEGQDSPGGQSRGATRQKKTMKLSRALSDLVKYTKSVATHDIEMEAASSWQVSSFSETKAHQILQQKPAQYLRFNQQQLSRIYPSSYRVDSSNYNPQPFWNAGCQMVALNYQSEGRMLQLNRAKFSANGGCGYVLKPGCMCQGVFNPNSEDPLPGQLKKQLVLRIISGQQLPKPRDSMLGDRGEIIDPFVEVEIIGLPVDCSREQTRVVDDNGFNPTWEETLVFMVHMPEIALVRFLVWDHDPIGRDFIGQRTLAFSSMMPGYRHVYLEGMEEASIFVHVAVSDISGKVKQALGLKGLFLRGPKPGSLDSHAAGRPPARPSVSQRILRRTASAPTKSQKPGRRGFPELVLGTRDTGSKGVADDVVPPGPGPAPEAPAQEGPGSGSPRDTRPLSTQRPLPPLCSLETIAEEPAPGPGPPPPAAVPTSSSQGRPPYPTGPGANVASPLEDTEEPRDSRPRPCNGEGAGGAYERAPGSQTDGRSQPRTLGHLPVIRRVKSEGQVPTEPLGGWRPLAAPFPAPAVYSDATGSDPLWQRLEPCGHRDSVSSSSSMSSSDTVIDLSLPSLGLGRSRENLAGAHMGRLPPRPHSASAARPDLPPVTKSKSNPNLRATGQRPPIPDELQPRSLAPRMAGLPFRPPWGCLSLVGVQDCPVAAKSKSLGDLTADDFAPSFEGGSRRLSHSLGLPGGTRRVSGPGVRRDTLTEQLRWLTVFQQAGDITSPTSLGPAGEGVAGGPGFVRRSSSRSHSRVRAIASRARQAQERQQRLQGLGRQGPPEEERGTPEGACSVGHEGSVDAPAPSKGALGPASAAAENLVLLRL |  | binds | 
3 | HA-tagged PLCη2_C2 (HA–PLCη2_C2) (domain or fragment, UniProt O75038-1 741-872) QGVFNPNSEDPLPGQLKKQLVLRIISGQQLPKPRDSMLGDRGEIIDPFVEVEIIGLPVDCSREQTRVVDDNGFNPTWEETLVFMVHMPEIALVRFLVWDHDPIGRDFIGQRTLAFSSMMPGYRHVYLEGMEE |  | binds | 

Further lines, with some results ahead:

Row | binding [1] | binding [3] | Binder | other results
4 | binds |  | VN-PLCη2 (full-length human PLCη2 fused to the N-terminal half of Venus) (protein, UniProt O75038-1 1-1416) MSGPWPSPDSRTKGTVAWLAEVLLWVGGSVVLSSEWQLGPLVERCMGAMQEGMQMVKLRGGSKGLVRFYYLDEHRSCIRWRPSRKNEKAKISIDSIQEVSEGRQSEVFQRYPDGSFDPNCCFSIYHGSHRESLDLVSTSSEVARTWVTGLRYLMAGISDEDSLARRQRTRDQWLKQTFDEADKNGDGSLSIGEVLQLLHKLNVNLPRQRVKQMFREADTDDHQGTLGFEEFCAFYKMMSTRRDLYLLMLTYSNHKDHLDAASLQRFLQVEQKMAGVTLESCQDIIEQFEPCPENKSKGLLGIDGFTNYTRSPAGDIFNPEHHHVHQDMTQPLSHYFITSSHNTYLVGDQLMSQSRVDMYAWVLQAGCRCVEVDCWDGPDGEPIVHHGYTLTSKILFKDVIETINKYAFIKNEYPVILSIENHCSVIQQKKMAQYLTDILGDKLDLSSVSSEDATTLPSPQMLKGKILVKGKKLPANISEDAEEGEVSDEDSADEIDDDCKLLNGDASTNRKRVENTAKRKLDSLIKESKIRDCEDPNNFSVSTLSPSGKLGRKSKAEEDVESGEDAGASRRNGRLVVGSFSRRKKKGSKLKKAASVEEGDEGQDSPGGQSRGATRQKKTMKLSRALSDLVKYTKSVATHDIEMEAASSWQVSSFSETKAHQILQQKPAQYLRFNQQQLSRIYPSSYRVDSSNYNPQPFWNAGCQMVALNYQSEGRMLQLNRAKFSANGGCGYVLKPGCMCQGVFNPNSEDPLPGQLKKQLVLRIISGQQLPKPRDSMLGDRGEIIDPFVEVEIIGLPVDCSREQTRVVDDNGFNPTWEETLVFMVHMPEIALVRFLVWDHDPIGRDFIGQRTLAFSSMMPGYRHVYLEGMEEASIFVHVAVSDISGKVKQALGLKGLFLRGPKPGSLDSHAAGRPPARPSVSQRILRRTASAPTKSQKPGRRGFPELVLGTRDTGSKGVADDVVPPGPGPAPEAPAQEGPGSGSPRDTRPLSTQRPLPPLCSLETIAEEPAPGPGPPPPAAVPTSSSQGRPPYPTGPGANVASPLEDTEEPRDSRPRPCNGEGAGGAYERAPGSQTDGRSQPRTLGHLPVIRRVKSEGQVPTEPLGGWRPLAAPFPAPAVYSDATGSDPLWQRLEPCGHRDSVSSSSSMSSSDTVIDLSLPSLGLGRSRENLAGAHMGRLPPRPHSASAARPDLPPVTKSKSNPNLRATGQRPPIPDELQPRSLAPRMAGLPFRPPWGCLSLVGVQDCPVAAKSKSLGDLTADDFAPSFEGGSRRLSHSLGLPGGTRRVSGPGVRRDTLTEQLRWLTVFQQAGDITSPTSLGPAGEGVAGGPGFVRRSSSRSHSRVRAIASRARQAQERQQRLQGLGRQGPPEEERGTPEGACSVGHEGSVDAPAPSKGALGPASAAAENLVLLRL | 
5 | binds |  | VN-PLCη2_C2 (C2 domain of human PLCη2 fused to the N-terminal half of Venus) (domain or fragment, UniProt O75038-1 741-872) QGVFNPNSEDPLPGQLKKQLVLRIISGQQLPKPRDSMLGDRGEIIDPFVEVEIIGLPVDCSREQTRVVDDNGFNPTWEETLVFMVHMPEIALVRFLVWDHDPIGRDFIGQRTLAFSSMMPGYRHVYLEGMEE | 
